This passage reports IC50 results from article PMC11905336, “Pyrrole‐Tethered Bisbenzoxazole Derivatives: Apoptosis‐Inducing Agents Targeting Breast Cancer Cells” (Chemical Biology & Drug Design, 2025).

The test concerns MCF‐7 cell lines. The test can be described thus: MTT assay, cytotoxicity on MCF-7 cells. In kind it is cell-based. The note with it: Homo sapiens. The method, then: The cytotoxic effects of PTB derivatives on MCF‐7 breast cancer cells were evaluated using the MTT assay at various concentrations (100 nM, 1 μM, 10 μM, 50 μM, and 100 μM). […] These compounds were selected for further investigation based on their potent activity.
The human dermal fibroblast (HDFa) and human breast cancer cells (MCF‐7) were obtained from the American Type Culture Collection (ATCC; Manassas, VA, USA). Cells were cultured in RPMI medium (MCF‐7) and DMEM medium (HDFa) was supplemented with 10% FBS, 1% penicillin–streptomycin, 1% amphotericin, and 2.5% L‐glutamine at 37°C in a 5% CO2 incubator.
MTT Method. The MTT method is used to detect and quantify living organisms cultured with the method colorimetrically. This method relies on intact mitochondria cleaving the tetrazolium ring of the MTT dye. The MTT substance is absorbed and reduced to a colorful, water‐insoluble formazan by a mitochondria‐dependent reaction. Cell viability is measured based on the MTT reduction property, and the density of dye obtained from MTT analysis indicates the number of viable cells. In this study, cell viability was assessed using the MTT (0.5 mg/mL) solution that was added to each well. […] After adding properties to cultures, they were kept at 37°C for 24 h and overnight. Then, at 48 and 72 h after applying the molecules, 10 μL of MTT was added to each well and incubated under similar conditions for 4 h. Absorbance spectrophotometry was performed at a wavelength of 570 nm using the IC50 = [(control absorbents‐sample absorbents)/control absorbents] × 100 calculation method (Khorsandi et al. [2017]).
On the technique in general: Formazan colour is commonly taken as a measure of viable cells.

Like-named read-outs stand apart in the source and are kept apart here.

What is called IC50 is the concentration that inhibits the measured activity by half. For the molecule `CC/C(=C(\c1ccccc1)c1ccc(OCCN(C)C)cc1)c1ccccc1` [Tamoxifen, reference compound], the IC50 (MCF7, 24 h, read-out: IC50 (μM) for MCF‐7 cell lines, 24 h) is 8.93 ± 1.97 µM; the IC50 (MCF7, 72 h, read-out: IC50 (μM) for MCF‐7 cell lines, 72 h) was found to be 7.59 ± 0.87 µM; the IC50 (MCF7, read-out: IC50 (μM) for MCF‐7 cell lines, 48 h) came to 8.03 ± 1.58 µM.
